Results taken from US20140088023A1.
No constants are given. Whether binding was seen depends on the method and setting. Binding seen in cells or lysates may run through a third protein. Some entries that bind do so weakly or less than the wild type.

Assays:
[1] = biological target: T1, soluble guanylyl cyclase alpha 1 (sGCα1) (UniProt Q02108); assay: co-IP with anti-sGCα1 antibody of mixed E. coli extracts, Western blot for p53
T1 sequence (looked up): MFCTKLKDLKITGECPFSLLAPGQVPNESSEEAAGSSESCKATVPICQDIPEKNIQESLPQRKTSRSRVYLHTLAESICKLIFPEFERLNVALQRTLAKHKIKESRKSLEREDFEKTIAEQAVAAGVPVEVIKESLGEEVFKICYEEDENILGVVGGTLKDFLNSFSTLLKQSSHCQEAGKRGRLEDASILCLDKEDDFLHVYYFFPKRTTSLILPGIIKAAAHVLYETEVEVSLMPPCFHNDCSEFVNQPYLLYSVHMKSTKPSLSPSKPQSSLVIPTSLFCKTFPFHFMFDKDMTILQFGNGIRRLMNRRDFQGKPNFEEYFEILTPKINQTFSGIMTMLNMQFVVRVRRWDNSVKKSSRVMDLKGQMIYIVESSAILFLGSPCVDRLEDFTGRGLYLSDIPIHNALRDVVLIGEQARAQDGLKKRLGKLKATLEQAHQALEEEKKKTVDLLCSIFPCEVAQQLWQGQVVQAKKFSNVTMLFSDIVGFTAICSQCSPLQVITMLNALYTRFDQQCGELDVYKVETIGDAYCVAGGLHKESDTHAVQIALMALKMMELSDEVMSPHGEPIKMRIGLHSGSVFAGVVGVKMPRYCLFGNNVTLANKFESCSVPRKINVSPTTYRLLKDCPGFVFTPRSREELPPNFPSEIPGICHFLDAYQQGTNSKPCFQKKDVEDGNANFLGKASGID

[2] = biological target: T1, soluble guanylyl cyclase alpha 1 (sGCα1); assay: co-IP with anti-sGCα1 antibody from LNCaP cytoplasmic extract, Western blot

binding [1]: binds
binding [2]: binds
Substance: p53 (from UniProt P04637 1-393)
